The list does not hold the whole screen: it gathers tests that were run many times, whatever their T/C, doses with no T/C, and many T/C values between a quarter and a half above the control. Further doses and runs are listed elsewhere. T/C: endpoint of the treated group in % of that of the vehicle group. Some entries give survivors of the animals treated and no T/C: the source holds a T/C of zero for them, seemingly a mark for toxic or unscored doses. Some doses without a T/C left all or most animals alive at the check, yet need not have been tolerated: the source hardly ever lists a survival T/C far under the control, and the zero likely stands for such cases as well. Counts of survivors are from the toxicity check (mostly the fifth day) where no day follows; animals may have died later. Schedules are NCI's codes, read here as Q, the interval in days (D) or hours (H), X, the number of doses. Where survival is the endpoint, the PubChem record calls one and a half times the control and up active, and a quarter to a half above the control has no call in these data; cut-offs in other NCI protocols can differ. Some entries were tested several times; the values are given in rising order. Some T/C values are followed by the survivors on the day toxicity was checked, most often the fifth; where none is given, no animal had died by that day.
Test system: P388 leukemia ip, CD2F1 mice, survival T/C
Experiment: NCI In Vivo Anticancer Drug Screen. Data for tumor model P388 Leukemia (intraperitoneal) in CD2F1 (CDF1) mice
Details: T/C endpoint: median survival time, higher T/C = longer survival
[1] = dose: 120.0 mg/kg/injection, schedule: Q01DX005 (ip), vehicle: Klucel (hydroxypropylcellulose) (HPC)
[2] = dose: 240.0 mg/kg/injection, schedule: Q01DX005 (ip), vehicle: Klucel (hydroxypropylcellulose) (HPC)
[3] = dose: 200.0 mg/kg/injection, schedule: Q01DX005 (ip), vehicle: saline with Tween-80
[4] = dose: 240.0 mg/kg/injection, schedule: Q01DX005 (ip), vehicle: saline with Tween-80
[5] = dose: 200.0 mg/kg/injection, schedule: Q04DX002 (ip), vehicle: saline

CCC(=O)N(C)C(C)C(=O)OC1CC(=O)N(C)c2cc(cc(OC)c2Cl)CC(CO)=C/C=C/C(OC)C2(O)CC(OC(=O)N2)C(C)C2OC12C (centres undefined) was tested, and the T/C (dose: 25.0 micrograms/kg/injection, schedule: Q01DX009 (ip), vehicle: saline + alcohol) was 147 % of control, the T/C (dose: 50.0 micrograms/kg/injection, schedule: Q01DX009 (ip), vehicle: saline + alcohol) was 149 % of control and the T/C (dose: 100.0 micrograms/kg/injection, schedule: Q01DX009 (ip), vehicle: saline + alcohol) was 136 % of control. The T/C (dose: 200.0 micrograms/kg/injection, schedule: Q01DX009 (ip), vehicle: saline + alcohol) was 130 and 145 % of control.

CCCN(CCC)CCSC(=S)NCCOC was tested, and the survivor count (dose: 400.0 mg/kg/injection, schedule: Q04DX003 (ip), vehicle: saline with Tween-80) was 1 of 6.

In the case of Cc1ccc(-n2c3nc(=O)n(C)c(=O)c-3nc3ccccc32)cc1C, the survivor count (dose: 400.0 mg/kg/injection, schedule: Q01DX001 (ip), vehicle: Klucel (hydroxypropylcellulose) (HPC)) is reported as 0 of 6.

N#C/C(=N\Nc1ccc(F)cc1)C(=O)C1CC1 was tested, and the survivor count [1] was 0 of 6 and the survivor count [2] was 0 of 6.

In the case of CC1(O)CC23CC(O)C4(O)C(CC(O)C4(C)C)C(C)(O)C2CCC1C3O (centres undefined), the survivor count (dose: 1.0 mg/kg/injection, schedule: Q01DX009 (ip), vehicle: Klucel (hydroxypropylcellulose) (HPC)) is reported as 1 of 6.

C/C(=N\N=C(N)N)c1ccccc1 was tested, and the survivor count (dose: 25.0 mg/kg/injection, schedule: Q01DX009 (ip), vehicle: saline) was 0 of 6 and the survivor count (dose: 50.0 mg/kg/injection, schedule: Q01DX009 (ip), vehicle: saline) was 0 of 6.

With CC1(C)NC(=O)N(Cc2ccccc2)C1=O the T/C (dose: 400.0 mg/kg/injection, schedule: Q01DX009 (ip), vehicle: saline) was 130 % of control [5 of 6 alive].

In the case of O=C(Nc1ccccc1)/C(N=Nc1ccc([N+](=O)[O-])cc1Cl)=N/Nc1ccc([N+](=O)[O-])cc1Cl, the survivor count (dose: 200.0 mg/kg/injection, schedule: Q01DX005 (ip), vehicle: Klucel (hydroxypropylcellulose) (HPC)) is reported as 6 of 6.

In the case of O=C(OCC(OC(=O)c1ccccc1)C(OC(=O)c1ccccc1)C(OC(=O)c1ccccc1)C(OC(=O)c1ccccc1)c1nn[nH]n1)c1ccccc1 (centres undefined), the survivor count (dose: 50.0 mg/kg/injection, schedule: Q01DX005 (ip), vehicle: saline with Tween-80) is reported as 6 of 6, the survivor count (dose: 100.0 mg/kg/injection, schedule: Q01DX005 (ip), vehicle: saline with Tween-80) is reported as 5 of 5 and the survivor count [3] is reported as 5 of 5.

For C=C1C[C@]23C[C@@]1(O)CC[C@H]2[C@@]12C=C[C@@H](O1)C(C(=O)OCC)=C2[C@@H]3O, the survivor count (dose: 30.0 mg/kg/injection, schedule: Q01DX005 (ip), vehicle: Klucel (hydroxypropylcellulose) (HPC)) was 0 of 6, the survivor count (dose: 60.0 mg/kg/injection, schedule: Q01DX005 (ip), vehicle: Klucel (hydroxypropylcellulose) (HPC)) was 0 of 6 and the survivor count [1] was 2 of 6. For the same compound, the survivor count [2] was 0 of 6.

With CC(NNC(=S)N1CCN(c2ccccn2)CC1)c1cc2ccccc2cn1 (centres undefined) the survivor count (dose: 100.0 mg/kg/injection, schedule: Q04DX003 (ip), vehicle: Klucel (hydroxypropylcellulose) (HPC)) was 6 of 6 and the survivor count (dose: 200.0 mg/kg/injection, schedule: Q04DX003 (ip), vehicle: Klucel (hydroxypropylcellulose) (HPC)) was 6 of 6.

O=C1c2cc(Cl)ccc2-c2c(NC(=O)C(Cl)Cl)cc(Cl)cc21 was tested, and the survivor count (dose: 100.0 mg/kg/injection, schedule: Q01DX009 (ip), vehicle: Klucel (hydroxypropylcellulose) (HPC)) was 2 of 6 and the survivor count (dose: 200.0 mg/kg/injection, schedule: Q01DX009 (ip), vehicle: Klucel (hydroxypropylcellulose) (HPC)) was 0 of 6.

For N#Cc1ccc(NN=NCCS(=O)CCCl)cc1 (centres undefined), the T/C (dose: 50.0 mg/kg/injection, schedule: Q01DX009 (ip), vehicle: distilled water + Tween-80) was 125 % of control and the T/C (dose: 100.0 mg/kg/injection, schedule: Q01DX009 (ip), vehicle: distilled water + Tween-80) was 140 % of control.

COc1cc(C)c(/C(=N/O)n2nnc(-c3ccccc3)n2)c(C)c1 was tested, and the survivor count (dose: 120.0 mg/kg/injection, schedule: Q01DX005 (ip), vehicle: saline with Tween-80) was 6 of 6 and the survivor count [4] was 6 of 6.

In the case of COCCn1cc(F)c(=O)[nH]c1=O, the T/C [5] is reported as 129 % of control.

For N#CCc1ccccc1Br, the survivor count [3] was 0 of 5.

For CC12CC3CC(C)(C1)CC(SCCN)(C3)C2, the survivor count [4] was 4 of 6.

With NC(=O)/C=C/C(=O)NC(=O)Cc1ccccc1 the T/C (dose: 12.0 mg/kg/injection, schedule: Q01DX009 (ip), vehicle: saline with Tween-80) was 126 % of control.

In the case of O=C(N1CCC(CCN2CCCC2)CC1)C(O)(c1ccccc1)c1ccccc1, the survivor count [5] is reported as 1 of 6 and the survivor count (dose: 400.0 mg/kg/injection, schedule: Q04DX002 (ip), vehicle: saline) is reported as 0 of 6.

Reference: PubChem BioAssay AID330 (DTP/NCI, 2004)
